From PubChem BioAssay AID1347426 (Functional Genomics Laboratory (NCATS/FGL), 2020) come the findings set out here.

In all, about 31,000 sequences went through this assay and about 1,400 (4.5%) were called active.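 The calls were made as follows: active = median seed-adjusted z-score above 1 or below -1; inactive = the rest.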 This is one part of the list.

A short description of this test: Novel Modifiers of Survival Motor Neuron (SMN) Protein: Gene Identification via Genome-wide siRNA Screen.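 Also: luminescence tracks full-length SMN protein made from the SMN2 reporter.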 The conditions noted are these: HEK293T SMN2-luciferase reporter, siRNA knockdown, 72 h; actives lie on both sides. An outline of the steps:
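siRNA screen, 10418 genes ×3 siRNAs; 1 pmol/well, lipid reverse transfection into HEK293T SMN2-luc reporter line. 72 h, 37 °C, 5% CO2; ONE-Glo readout. Data: neg-ctrl normalized, log10, MAD; hit = MAD >1.0 or < -1.0.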
In general terms: Reporter assays use an easily measured gene product as a stand-in for the process of interest.
For the sequence GAGUGUCUGAAAAAGUUCATT against CAMK2B, the median seed-adjusted z-score is inactive: 0.0305. For the sequence GCAUGUCUUUGCCUAUAGATT against PAM, the median seed-adjusted z-score is inactive: 0.

As for CUACCACUACAAGACCUAUTT against B4GALT7, the median seed-adjusted z-score is inactive: -0.00294. The figure for AGAUUACCCUGGGCCUUCATT against GCDH is inactive: -0.0391. Under GGAUCACUGAUGUCAUUAUTT against DHTKD1 stands inactive: 0.591. The figure for CCUUCGCCCAUAGCCUUAATT against ATP1B4 is inactive: 0.664; for GGAAUACCGUUUACUGCAATT against ERCC5 it is inactive: -0.0811.

On to CCAUAGCCUUUAUUAUUCATT against PTPLB, for which the median seed-adjusted z-score is inactive: 0.0451. The figure for GGGAAAUAGUGAGAGCCUUTT against ZNF101 is inactive: 0.336; for GGAAGGCAUUGUCAGAUGATT against CYP4F12 it is inactive: -0.564. For GAUCGAGAUAUGAAGCGAATT against PMPCA, the median seed-adjusted z-score is inactive: -0.985. Consider GGAGUUUCCAGAUCUCAAATT against LGR6, for which the median seed-adjusted z-score is inactive: 0.237. GGCUUACUGGGUGAAUUAUTT against CARD17: the median seed-adjusted z-score is inactive: 0.301. The figure for GAGACAGCAUAGAAGUUAATT against MAP1D is inactive: 0.155. Under CAAGGUUCUUGGUUGGGUATT against ZDHHC13 stands inactive: -0.381; under CGGAUGCACAAGCUAAAUATT against BHLHA15, inactive: -0.199. The figure for GCUUAAGUCCUAGUGAACATT against ZNF649 is inactive: 0.259. In the case of GGACUGUCCCUACAAUCUATT against HS6ST2, the median seed-adjusted z-score was inactive: 0. Under CUUCAGCUGUCUGUACCCATT against SPIB stands inactive: 0.0726; under GGACCUAGCUGGGAACUUATT against GTF2IRD2, inactive: 0.904. The figure for GCAAGACCAUGCUACUAUUTT against DPAGT1 is inactive: -0.144. As to GAGUGUAACUGCAACCAGATT against NTNG2, the median seed-adjusted z-score is inactive: 0.403.

As to GUAUCUAAGAGAGAUGAAATT against AP3S1, the median seed-adjusted z-score is inactive: 0.787.

In the case of GCACUACUGUGGACUCUUATT against DCHS1, the median seed-adjusted z-score was inactive: 0.565. The figure for GCAUGAUUCUGGAAGCGCATT against ATP11A is inactive: 0.158; for GAACUUGCAUCAGCACUGATT against ANXA2 it is inactive: 0.499; for GGAGAGCCUGAUCAACAAATT against NUP62 it is inactive: 0.

For the sequence GGACCAGAACCACAAGCAATT against GHSR, the median seed-adjusted z-score is inactive: 0.18. In the case of GAAUCUCCAGGAGUAAGGATT against MAP3K1, the median seed-adjusted z-score is inactive: -0.217. As to GGAUGCUCUGUGAUCAGUATT against PDK4, the median seed-adjusted z-score was inactive: -0.693. As to GGCUUUCAUUGAGCAGGAATT against ATP6V1E2, the median seed-adjusted z-score is inactive: -0.162. Under CCUGAGAGAUUAAGACUAUTT against GPSM3 stands inactive: -0.641; under GACUCAGAGUAACAACGCATT against MARK2, inactive: 0.664. Under GAGCUUCGAUAUUAAGGCUTT against CHIA stands inactive: 0.479. Take CCAUCGCCUUGAAGGAGAATT against RNF31: the median seed-adjusted z-score was inactive: -0.687. Under UGGAAAGGCUUAAAGAACATT against MUTED stands inactive: 0.00377; under CAUCUAUCGUUACUUCCCATT against ZNF467, inactive: 0. The figure for GGACCUUCCUCAACUACUATT against EDEM2 is inactive: 0.36; for GGCUCAACAUGGACCGGAUTT against BCAT2 it is inactive: 0.0438. Under GAAUCUACGUCCCAAGAGATT against LIPE stands inactive: -0.276; under ACCUUUACCAUAAACUACATT against EPDR1, inactive: 0.369. Turning to CGUUGUUACUGGUGGAUAUTT against SLC16A4, the median seed-adjusted z-score was inactive: 0.341. Under GCUAAAUGGAGGAGACUAATT against HHEX stands inactive: -0.428; under GCAAGAUCUUAUCCACAGATT against CIP29, active: -1.18; under AGAUGUCCGAGCAACUGAATT against EXOSC1, inactive: 0.0508. The figure for AGCUCACACUAUGCAUUGATT against KRTAP2-2 is inactive: -0.212; for CCACCGACGACAAUCUGUATT against ATP4A it is inactive: 0. The figure for GGGAAGAUCUCGUUCAAAATT against CETN1 is inactive: 0.236; for AGACACCUCCUAGGACUAUTT against MZF1 it is inactive: 0.215; for CCUAGAGCCUAGAACUGUATT against CABP7 it is inactive: -0.268.

With GCAUCAUCGAGUACCCUUUTT against GNA11, the median seed-adjusted z-score was inactive: -0.11. With GCAAGACGUACAACUUAAATT against HSD17B10, the median seed-adjusted z-score was inactive: -0.355. Under GGAGCCUAGUCAAGCCUGATT against VHL stands inactive: -0.0797; under GGAUAUUGCGUUUGGAACATT against TDP1, inactive: -0.352; under CAGAUUUGGUAAAAGAGUATT against VPS26A, active: -1.55.

Turning to GCCCAAGAAUGGGAUGUAUTT against CYP4X1, the median seed-adjusted z-score is inactive: 0.546. The figure for UCAUAUUCGUUGUAAUUUUTT against SLCO4A1 is inactive: -0.0802; for AACCCAUCGUUCCAUAUUATT against PPOX it is inactive: 0.519; for GUAACUACAGCAUAGAUUUTT against ZFP90 it is inactive: 0.

As for UCUGCUAUUUGGUCCUGAATT against TOMM34, the median seed-adjusted z-score was inactive: -0.503. Under GCCGAGUUUUGACCCUAGATT against SMC1B stands inactive: 0. Regarding GGAGUAUAUGGUGAUCGAATT against KCNA3, the median seed-adjusted z-score was inactive: 0.213. For GCAGCAAAGGAAACCUAAATT against KLRC3, the median seed-adjusted z-score was inactive: 0.833. Under ACAUUUUACAUGCAGCUAUTT against FABP5 stands inactive: -0.258.

Consider GGAUUUAUCUGUAACAUGATT against PDE6C, for which the median seed-adjusted z-score is inactive: 0.205. The figure for UGACCAUCGUCUACAAGAATT against COPZ2 is active: -1.23. The figure for CACUUGAUGUUAUUCGUGUTT against MOAP1 is inactive: 0.0405; for CGAGCAAGCUAUGGAUCUATT against TSC22D1 it is inactive: 0; for AAAGAACUAUAUUGAAGAATT against GNG11 it is inactive: 0.00609.
